Results taken from the supplement of paper PMC6078165.
± gives the standard deviation of the averaged measurements. Values are relative to the signal before dosing, not to a vehicle control; the signal also falls without drug.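 Fibroblast labels name human fibroblasts: mostly primary ones from tissues such as uterus (C12385, HUF), lung (H6013), bone (Hs27A), adrenal (HADF) and skin (WS1), plus mammary HMF and breast cancer-associated Hs343T. The cancer cells are basal-like or mesenchymal-like triple-negative breast cancer lines. The paper calls a changed response a hit when it shifts by more than 3x the replicate standard deviation. The tissue of the other fibroblasts is not given here.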

System: BT20
Experiment: relative JC-1 red fluorescence (viability) vs pre-drug, coculture with fibroblast (fraction); higher = more viable cancer cells
Experimental: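 JC-1 labelled TNBC cells cocultured 1:1 (1,500 cells each) with CellTrace Violet stained primary or stromal fibroblasts in 384-well plates in FluoroBrite medium, treated with one of 42 anticancer drugs at 0.1, 1, 10 or 100 uM. JC-1 red fluorescence (mitochondrial integrity in cancer cells only) was read by plate reader every 8 h for 72 h. Values are normalised to each well's pre-drug value. The stock of one drug was tenfold lower, so its dose labels may be too high.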

CC[C@]1(O)C[C@@H]2CN(CCc3c([nH]c4ccccc34)[C@@](C(=O)OC)(c3cc4c(cc3OC)N(C)[C@H]3[C@@](O)(C(=O)OC)[C@H](OC(C)=O)[C@]5(CC)C=CCN6CC[C@]43[C@@H]65)C2)C1 [Vinblastine]
relative JC-1 red fluorescence
Details | 8 h | 16 h | 24 h | 32 h | 40 h | 48 h | 56 h | 64 h | 72 h
0.1 µM, coculture fibroblast: C12385 | 0.882 ± 0.025 | 0.8212 ± 0.0076 | 0.799 ± 0.016 | 0.739 ± 0.022 | 0.67 ± 0.038 | 0.625 ± 0.04 | 0.597 ± 0.019 | 0.593 ± 0.026 | 0.591 ± 0.04
0.1 µM, coculture fibroblast: H6013 | 0.9206 ± 0.0038 | 0.896 ± 0.037 | 0.867 ± 0.065 | 0.831 ± 0.052 | 0.797 ± 0.053 | 0.786 ± 0.017 | 0.781 ± 0.022 | 0.771 ± 0.032 | 0.77 ± 0.031
0.1 µM, coculture fibroblast: H6019 | 0.8641 ± 0.0011 | 0.83759 ± 0.00071 | 0.871 ± 0.027 | 0.841 ± 0.027 | 0.813 ± 0.014 | 0.813 ± 0.014 | 0.796 ± 0.021 | 0.801 ± 0.03 | 0.795 ± 0.024
0.1 µM, coculture fibroblast: H6076 | 0.957 ± 0.036 | 0.912 ± 0.026 | 0.8575 ± 0.0034 | 0.849 ± 0.0096 | 0.833 ± 0.029 | 0.829 ± 0.049 | 0.846 ± 0.068 | 0.869 ± 0.084 | 0.875 ± 0.086
0.1 µM, coculture fibroblast: H6231 | 0.71 ± 0.026 | 0.935 ± 0.054 | 0.837 ± 0.053 | 0.754 ± 0.042 | 0.679 ± 0.041 | 0.616 ± 0.018 | 0.558 ± 0.018 | 0.531 ± 0.0075 | 0.511 ± 0.0053
0.1 µM, coculture fibroblast: HADF | 0.946 ± 0.014 | 0.8728 ± 0.0041 | 0.812 ± 0.026 | 0.7648 ± 0.0067 | 0.723 ± 0.017 | 0.686 ± 0.033 | 0.668 ± 0.031 | 0.651 ± 0.016 | 0.633 ± 0.017
0.1 µM, coculture fibroblast: HCFa | 0.9021 ± 0.007 | 0.909 ± 0.029 | 0.919 ± 0.067 | 0.875 ± 0.1 | 0.856 ± 0.11 | 0.829 ± 0.11 | 0.815 ± 0.12 | 0.79 ± 0.14 | 0.754 ± 0.15
0.1 µM, coculture fibroblast: HCPF | 0.851 ± 0.2 | 0.915 ± 0.018 | 0.8354 ± 0.0038 | 0.768 ± 0.0098 | 0.733 ± 0.01 | 0.685 ± 0.022 | 0.643 ± 0.044 | 0.644 ± 0.059 | 0.609 ± 0.071
0.1 µM, coculture fibroblast: HHSteC | 0.8892 ± 0.0018 | 0.883 ± 0.06 | 0.89 ± 0.13 | 0.81 ± 0.14 | 0.777 ± 0.15 | 0.744 ± 0.16 | 0.726 ± 0.17 | 0.712 ± 0.18 | 0.688 ± 0.19
0.1 µM, coculture fibroblast: HMF | 0.924 ± 0.013 | 0.856 ± 0.028 | 0.771 ± 0.018 | 0.732 ± 0.028 | 0.701 ± 0.021 | 0.663 ± 0.024 | 0.649 ± 0.031 | 0.626 ± 0.038 | 0.621 ± 0.047
0.1 µM, coculture fibroblast: HPFa | 0.9512 ± 0.0024 | 0.842 ± 0.019 | 0.8419 ± 0.0051 | 0.774 ± 0.0088 | 0.75 ± 0.041 | 0.719 ± 0.047 | 0.705 ± 0.067 | 0.69 ± 0.067 | 0.658 ± 0.055
0.1 µM, coculture fibroblast: HUF | 0.8937 ± 0.0024 | 0.778 ± 0.021 | 0.7357 ± 0.0016 | 0.636 ± 0.02 | 0.586 ± 0.03 | 0.524 ± 0.024 | 0.489 ± 0.043 | 0.469 ± 0.052 | 0.455 ± 0.062
0.1 µM, coculture fibroblast: Hs5 | 0.858 ± 0.15 | 0.924 ± 0.028 | 0.8558 ± 0.0019 | 0.808 ± 0.014 | 0.762 ± 0.04 | 0.722 ± 0.06 | 0.691 ± 0.07 | 0.658 ± 0.092 | 0.643 ± 0.11
0.1 µM, coculture fibroblast: Hs27A | 0.922 ± 0.078 | 0.86 ± 0.021 | 0.902 ± 0.041 | 0.872 ± 0.061 | 0.837 ± 0.041 | 0.825 ± 0.028 | 0.819 ± 0.0096 | 0.815 ± 0.0074 | 0.793 ± 0.018
0.1 µM, coculture fibroblast: Hs343T | 0.85 ± 0.047 | 0.879 ± 0.075 | 0.778 ± 0.032 | 0.7145 ± 0.0033 | 0.651 ± 0.034 | 0.595 ± 0.062 | 0.557 ± 0.1 | 0.541 ± 0.12 | 0.518 ± 0.13
0.1 µM, coculture fibroblast: WS1 | 0.8437 ± 0.0075 | 0.776 ± 0.0083 | 0.737 ± 0.025 | 0.665 ± 0.034 | 0.603 ± 0.038 | 0.576 ± 0.045 | 0.548 ± 0.049 | 0.536 ± 0.057 | 0.531 ± 0.061
1 µM, coculture fibroblast: C12385 | 0.875 ± 0.026 | 0.8165 ± 0.0014 | 0.7832 ± 0.0045 | 0.724 ± 0.018 | 0.67 ± 0.026 | 0.635 ± 0.026 | 0.599 ± 0.034 | 0.581 ± 0.026 | 0.57 ± 0.019
1 µM, coculture fibroblast: H6013 | 0.831 ± 0.065 | 0.833 ± 0.021 | 0.848 ± 0.029 | 0.853 ± 0.11 | 0.852 ± 0.12 | 0.807 ± 0.072 | 0.835 ± 0.071 | 0.76 ± 0.024 | 0.7792 ± 0.0018
1 µM, coculture fibroblast: H6019 | 0.831 ± 0.012 | 0.8 ± 0.022 | 0.798 ± 0.013 | 0.7576 ± 0.0058 | 0.72 ± 0.0084 | 0.7177 ± 0.0028 | 0.703 ± 0.014 | 0.698 ± 0.015 | 0.695 ± 0.012
1 µM, coculture fibroblast: H6076 | 0.94 ± 0.083 | 0.915 ± 0.062 | 0.871 ± 0.037 | 0.848 ± 0.03 | 0.8291 ± 0.0076 | 0.811 ± 0.025 | 0.799 ± 0.058 | 0.806 ± 0.063 | 0.802 ± 0.094
1 µM, coculture fibroblast: H6231 | 0.823 ± 0.012 | 0.948 ± 0.011 | 0.835 ± 0.04 | 0.767 ± 0.017 | 0.696 ± 0.0074 | 0.643 ± 0.015 | 0.585 ± 0.0069 | 0.562 ± 0.0063 | 0.53 ± 0.0056
1 µM, coculture fibroblast: HADF | 0.953 ± 0.024 | 0.884 ± 0.015 | 0.887 ± 0.022 | 0.814 ± 0.012 | 0.778 ± 0.018 | 0.737 ± 0.022 | 0.725 ± 0.023 | 0.723 ± 0.014 | 0.695 ± 0.026
1 µM, coculture fibroblast: HCFa | 0.882 ± 0.011 | 0.857 ± 0.012 | 0.8304 ± 0.0038 | 0.7473 ± 0.0038 | 0.69 ± 0.013 | 0.6402 ± 0.0024 | 0.6174 ± 0.0033 | 0.591 ± 0.012 | 0.558 ± 0.0069
1 µM, coculture fibroblast: HCPF | 0.918 ± 0.029 | 0.9261 ± 0.0073 | 0.858 ± 0.035 | 0.805 ± 0.021 | 0.761 ± 0.068 | 0.721 ± 0.067 | 0.678 ± 0.073 | 0.663 ± 0.09 | 0.625 ± 0.11
1 µM, coculture fibroblast: HHSteC | 0.908 ± 0.022 | 0.958 ± 0.047 | 0.844 ± 0.16 | 0.8856 ± 0.0052 | 0.918 ± 0.091 | 0.894 ± 0.083 | 0.911 ± 0.065 | 0.894 ± 0.058 | 0.881 ± 0.055
1 µM, coculture fibroblast: HMF | 0.99 ± 0.015 | 0.8844 ± 0.0023 | 0.78038 ± 0.00051 | 0.713 ± 0.016 | 0.674 ± 0.014 | 0.6244 ± 0.0034 | 0.565 ± 0.015 | 0.54 ± 0.019 | 0.517 ± 0.02
1 µM, coculture fibroblast: HPFa | 0.934 ± 0.014 | 0.878 ± 0.021 | 0.891 ± 0.03 | 0.795 ± 0.03 | 0.781 ± 0.038 | 0.735 ± 0.043 | 0.726 ± 0.034 | 0.711 ± 0.037 | 0.681 ± 0.03
1 µM, coculture fibroblast: HUF | 0.935 ± 0.044 | 0.861 ± 0.059 | 0.837 ± 0.076 | 0.74 ± 0.081 | 0.694 ± 0.078 | 0.647 ± 0.058 | 0.617 ± 0.056 | 0.598 ± 0.039 | 0.585 ± 0.037
1 µM, coculture fibroblast: Hs5 | 0.937 ± 0.067 | 0.935 ± 0.022 | 0.867 ± 0.014 | 0.807 ± 0.014 | 0.761 ± 0.017 | 0.719 ± 0.026 | 0.69 ± 0.03 | 0.665 ± 0.031 | 0.636 ± 0.034
1 µM, coculture fibroblast: Hs27A | 0.753 ± 0.067 | 0.814 ± 0.088 | 0.764 ± 0.017 | 0.913 ± 0.1 | 0.892 ± 0.069 | 0.953 ± 0.056 | 0.95 ± 0.066 | 0.927 ± 0.065 | 0.877 ± 0.051
1 µM, coculture fibroblast: Hs343T | 0.815 ± 0.053 | 0.911 ± 0.029 | 0.801 ± 0.043 | 0.725 ± 0.049 | 0.662 ± 0.052 | 0.61 ± 0.061 | 0.544 ± 0.064 | 0.509 ± 0.078 | 0.473 ± 0.076
1 µM, coculture fibroblast: WS1 | 0.8422 ± 0.0059 | 0.792 ± 0.017 | 0.793 ± 0.033 | 0.74 ± 0.03 | 0.695 ± 0.037 | 0.682 ± 0.041 | 0.671 ± 0.05 | 0.661 ± 0.054 | 0.663 ± 0.055
